Experimental data taken from PubChem BioAssay AID485314 (National Center for Advancing Translational Sciences (NCATS), 2010).
The whole screen tested about 340,000 compounds, of which about 4,500 (1.3%) were called active. This list was built around the results that the source calls inconclusive (neither active nor inactive); the mix of calls is not that of the screen. Calls come from the whole dose curve; as a rule, active = well fitted inhibition curve with a large enough effect; inconclusive = small, poorly fitted or top-dose-only effect, or another doubt; inactive = no such curve, though single readings can be large or run the other way. Where the call is inconclusive, the potency comes from a doubtful curve fit.

Target: DNA polymerase beta (Homo sapiens) (UniProt P06746)
Assay: qHTS Assay for Inhibitors of DNA Polymerase Beta
Details: Pol beta primer extension/strand displacement, fluorescence kinetic; activity change, negative = inhibition: at 114 µM (top of the series)
Summary of the method: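 Homogeneous kinetic assay of primer extension and strand displacement by 10 nM Pol beta, preincubated 15 min at room temperature with compound before 50 nM substrate (final) was added. Read at 0 and 10 min; four-parameter Hill fit.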
% is set by controls: 0 for no effect and ±100 for the full control effect; potency is the fitted concentration of half-maximal effect.

Question: `CN(CCCN1CCOCC1)Cc1cn(C)nc1-c1ccccc1F` was tested. Which Potency did it give?
Answer: inconclusive: 39.8 µM [inhibitor, single point]

Question: For `Cc1ccc(CN2CC(C(=O)Nc3ccc(F)c([N+](=O)[O-])c3)CC2=O)cc1` (configuration not stated), which Potency is on record?
Answer: inconclusive: 20 µM [inhibitor, full curve, poor fit]

Question: With `COc1ccc(C(=O)NNC(=O)C(Cc2ccc(O)cc2)NC(=O)c2ccccc2NC(=O)c2ccc(OC)cc2)cc1` (configuration not stated) as the compound, how does the Potency read?
Answer: inconclusive: 79.4 µM [inhibitor, single point]

Question: `O=C(NCCc1cnccn1)C1CCC(=O)N(Cc2ccc(Cl)cc2)C1` (configuration not stated) was tested. Which Potency did it give?
Answer: inconclusive: 0.631 µM [inhibitor, full curve, poor fit]

Question: With `Cc1ccc2nc(/C(C#N)=C/c3ccc(-c4ccc(F)cc4F)o3)[nH]c2c1` as the compound, how does the activity change, negative = inhibition read?
Answer: inconclusive: -129% [inhibitor]

Question: `CC(C)NC(=O)c1ccc(CN2CCc3ccccc3C2)cc1` was tested. Which Potency did it give?
Answer: inconclusive: 5.01 µM [inhibitor, full curve, poor fit]

Question: `O=C(COC(=O)/C=C/c1cccc([N+](=O)[O-])c1)NCc1ccco1` was tested. Which Potency did it give?
Answer: inconclusive: 35.5 µM [inhibitor, single point]

Question: For `CCN(CC)CCCNC(=O)c1cc2nc(-c3ccccc3)cc(C(F)(F)F)n2n1`, which Potency is on record?
Answer: inconclusive: 11.2 µM [inhibitor, partial curve, poor fit]

Question: `COc1ccc(O[C@H]2C=C[C@@H](c3ccccc3)O[C@@H]2CO/N=C(\C)CCN2CCCCc3nc(C)c(C)cc32)cc1` was tested. Which Potency did it give?
Answer: inconclusive: 89.1 µM [inhibitor, single point]

Question: `Cc1ccc2cccc(NC(=S)NC(=O)c3c(Br)cnn3C)c2n1` was tested. Which Potency did it give?
Answer: inconclusive: 89.1 µM [inhibitor, single point]

Question: With `Cc1ccc(S(=O)(=O)Nc2cc(=O)[nH]c(SCC(=O)Nc3ccccc3C(F)(F)F)n2)cc1` as the compound, how does the Potency read?
Answer: inactive

Question: How did the Potency turn out when `C=CCSc1nc2sc(-c3ccccc3)cc2c(=O)n1N` was run?
Answer: inconclusive: 28.2 µM [inhibitor, partial curve]

Question: With `CC(C)NS(=O)(=O)c1ccc(OCC(=O)N2CCN(c3ccccc3F)CC2)cc1` as the compound, how does the Potency read?
Answer: inactive

Question: With `CN(C)CCN(Cc1ccc(Cl)cc1)c1ccccn1` as the compound, how does the Potency read?
Answer: inactive

Question: How did the Potency turn out when `CCCCOC(=O)c1nnc(-c2ccc(Cl)cc2)o1` was run?
Answer: inconclusive: 89.1 µM [inhibitor, single point]

Question: For `O=C(NC1CCCC1)C(c1ccncc1)N(C(=O)c1csnn1)c1ccc(F)c(Cl)c1` (configuration not stated), which Potency is on record?
Answer: inconclusive: 89.1 µM [inhibitor, single point]

Question: For `CCc1nnc(NS(=O)(=O)c2ccc(NC(=S)NC(=O)/C=C/c3cccs3)cc2)s1`, which Potency is on record?
Answer: active: 89.1 µM
